Measured values reported in PubChem BioAssay AID493014 (National Center for Advancing Translational Sciences (NCATS), 2011).
The campaign covered roughly 340,000 compounds. About 170 (0.05%) were called active. Inconclusive means that the source gave no clear call. Such entries were picked first, then a sample of the others. Calls follow the shape of the dose curve; as a rule, active = well fitted inhibition curve with a large enough effect in the signal ratio, with a control signal flat (not every such curve was filed as active); inconclusive = small, poorly fitted or top-dose-only effect, or effect the other way, or a change in a side signal; inactive = flat fitted curve, though single readings scatter; the % refers to the signal ratio. Where the call is inconclusive, the potency comes from a doubtful curve fit.

Assay: qHTS Assay to Find Inhibitors of Chronic Active B-Cell Receptor Signaling;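 as to activity change, negative = inhibition: plate controls were basal doxycycline-induced cells for no effect and cells given 10 µM MG132 for full effect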
Settings: ABC-DLBCL IkBa-CBG/CBR reporter, luminescence ratio (green luciferase fused to IkBa over red control in TMD8 lymphoma cells), 4 h; activity change, negative = inhibition: at 46.1 µM (top of the series)
How it was run: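 TMD8 ABC-DLBCL cells carrying doxycycline-inducible green luciferase fused to IkappaBalpha plus unfused red luciferase were exposed to compounds (up to 46 uM) for 4 hrs at 37C. Activity came from the overlap-corrected green/red luminescence ratio.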
Potency is read from the fitted curve at half-maximal effect.

Row | SMILES | activity change, negative = inhibition | Potency
1 | COc1cccc(-c2ccnc3[nH]n(-c4ccccc4)c(=O)c23)c1 | inconclusive: -1.02% | 
2 | N#Cc1cccc(C(=O)Nc2ccc(S(=O)(=O)Nc3nccs3)cc2)c1 | inactive: -0.301% | 
3 | CCOC(=O)c1[nH]c2c(c1C)C(=O)CC(c1ccc(F)cc1)C2 (stereo not drawn) |  | inconclusive: 4.11 µM [falling, full curve]
4 | Cc1ccc(CNC(=O)CN2CCCC(C)C2)cc1 (stereo not drawn) |  | inconclusive: 6.51 µM [rising, full curve]
5 | Cc1cccc(N(Cc2cc3ccccc3[nH]c2=O)S(C)(=O)=O)c1 |  | inconclusive: 22.4 µM [falling, single point]
6 | C=CCn1c(CCNC(=O)c2cccs2)nnc1SCC(=O)Nc1cccc(F)c1 | inconclusive: -23.8% | 
7 | CC(C)CC(/C(O)=C(\C#N)c1nc2ccccc2[nH]1)N1C(=O)c2ccccc2C1=O (stereo not drawn) | inconclusive: 3.15% | 
8 | CCOC(=O)C1(CCCc2ccccc2)CCN(Cc2cn(CC)nc2C)CC1 | inactive: -1.11% | 
9 | Cc1ccc(NC(=S)NCCC2=CCCCC2)cc1 | inconclusive: 14.2% | 
10 | CCOC(=O)C(=O)Nc1ccccc1C(=O)Nc1ccc(OC)cc1 |  | inconclusive: 23.1 µM [falling, partial curve]
11 | Cc1cc(-c2onc(C)c2C(=O)Nc2ccc(C(F)(F)F)cc2)no1 | inactive: 7.3% | 
12 | NC(=O)[C@H]1CC2(CC(c3cccc(NC(=O)COc4ccc(Cl)cc4)c3)=NO2)CN1C(=O)Cc1ccc([N+](=O)[O-])cc1 (stereo partly drawn) | inconclusive: -28.5% | 
13 | Cc1cc(C)c2cc(CN(CCN3CCCC3)C(=O)Nc3ccc(F)cc3)c(=O)[nH]c2c1 | inconclusive: -0.715% | 
14 | Cc1c(Br)c([N+](=O)[O-])nn1CC(=O)Nc1ccc(C(C)C)cc1 | inactive: -2.33% | 
15 | CC1=C(C#N)C(c2cccnc2)C2=C(CC(C)(C)CC2=O)N1 (stereo not drawn) | inactive: -1.56% | 
16 | CN1CCN(c2ccccc2NC(=O)c2ccc(-c3ccc(Cl)cc3Cl)o2)CC1 | inactive: -6.39% | 
17 | Cc1cccc(Nc2nc(-c3c(C)nc4ccccn34)cs2)c1 |  | inconclusive: 14.1 µM [falling, partial curve]
18 | O=C(COc1ccc2ccccc2c1)Nc1ccccc1C(=O)O | inconclusive: 263% | 
19 | Cc1ccc(Nc2ncnc3nc[nH]c23)cc1Cl | inactive: -32.1% | 
20 | COc1ccc(CC(=O)Nc2cc(NC(=O)Cc3ccc(OC)c(OC)c3)cc(C(=O)O)c2)cc1OC | inconclusive: -1.22% | 
21 | O=C(Cn1cc(SCc2ccc(F)cc2)c2ccccc21)N1CCOCC1 |  | inconclusive: 18.4 µM [falling, single point]
22 | COc1cc2cc(C(c3nnnn3C(C)(C)C)N3CCc4ccccc43)c(=O)[nH]c2cc1OC (stereo not drawn) | inactive: -10.7% | 
23 | O=C(N/C=C/c1ccco1)Nc1cccc(Cl)c1 | inconclusive: 9.22% | 
24 | COc1ccccc1/C=C/CN1CCC(Oc2cc(C(=O)NC3CC3)ccc2OC)CC1 | inactive: -2.08% | 
25 | Cc1cc(C(=O)N/N=C/c2ccc(N3CCOCC3)cc2)c(C)o1 |  | inconclusive: 11.2 µM [falling, partial curve]
26 | O=c1c2ccccc2cnn1Cc1n[nH]c(=S)n1-c1ccccc1Cl | inconclusive: 5.67% | 

Records 4 to 7 of the list above:
Row | SMILES | activity change, negative = inhibition | Potency
4 | Cc1ccc(CNC(=O)CN2CCCC(C)C2)cc1 (stereo not drawn) |  | inconclusive: 6.51 µM [rising, full curve]
5 | Cc1cccc(N(Cc2cc3ccccc3[nH]c2=O)S(C)(=O)=O)c1 |  | inconclusive: 22.4 µM [falling, single point]
6 | C=CCn1c(CCNC(=O)c2cccs2)nnc1SCC(=O)Nc1cccc(F)c1 | inconclusive: -23.8% | 
7 | CC(C)CC(/C(O)=C(\C#N)c1nc2ccccc2[nH]1)N1C(=O)c2ccccc2C1=O (stereo not drawn) | inconclusive: 3.15% | 

Following part:

Row | SMILES | activity change, negative = inhibition | Potency
27 | CN(C)/C=C1\N=C(c2ccccc2)OC1=O | inactive: 3.75% | 
28 | Fc1ccc(/C=N/NC(=S)Nc2ccc(Cl)cc2Cl)cc1 | inconclusive: 9.63% | 
29 | Cc1c(Cl)c([N+](=O)[O-])nn1CC(=O)N1CCc2ccccc2C1 |  | inconclusive: 14.1 µM [falling, partial curve]
30 | O=C1CC(Cc2ccc(Cl)cc2)C(=O)N1c1cc(Cl)ccn1 (stereo not drawn) | inconclusive: 16.3% | 
31 | CC(C)(C)c1ccc(C(=O)NC(=S)Nn2cnnc2)cc1 | inactive: -3.12% | 
32 | Cc1[nH]c(=O)[nH]c(=O)c1/C=N/NC(=O)[C@H](CC(C)C)NC(=O)OC(C)(C)C | inconclusive: 1.21% | 
33 | COc1ccc(C(C)(C)C)cc1NC(=O)CCCn1c(=O)oc2ccccc21 | inconclusive: -19.6% | 
34 | COCc1ccc(C(=O)N2CCN(CC(=O)N3CCCC3)CC2)cc1 | inactive: 3.45% | 
35 | Cn1c(=O)c2c(nc(SCc3ccccc3F)n2C)n(C)c1=O | inconclusive: 9.69% | 
36 | COc1cc(N)ccc1NC(=O)c1cc2ccccc2o1 |  | inconclusive: 35.5 µM [falling, single point]
37 | Cc1cccc(CN2C(=O)/C(=C\c3ccc(C(=O)NCCN4CCOCC4)cc3)Sc3ccccc32)c1 | inconclusive: -25.9% | 
38 | COc1ccccc1OCCNC(=O)C1CC(=O)N(c2ccc3c(c2)OCCO3)C1 (stereo not drawn) |  | inconclusive: 20.6 µM [falling, partial curve, poor fit]
39 | CCNC(=O)CN(c1ccc(C)cc1)S(=O)(=O)c1ccccc1 | inconclusive: 21.2% | 
40 | CCS(=O)(=O)Nc1ccc(C2=NN(C(=O)c3ccco3)C(c3ccc(C)cc3)C2)cc1 (stereo not drawn) | inconclusive: 5.1% | 
41 | O=C1c2ccccc2C(=O)N1/N=C/c1ccc(O)c(O)c1 | inconclusive: -12.3% | 
42 | O=C(c1cc(-c2cccs2)on1)N1CCc2ccccc2C1 |  | inconclusive: 18.4 µM [falling, single point]
43 | CCCNS(=O)(=O)c1cc(Br)cc2c1N(C(=O)CC)CC2 | inactive: -7.78% | 
44 | CCN1C(=O)[C@H]2[C@@H](c3ccc(-c4cccc(Cl)c4)c(OC)c3)N[C@@](Cc3ccccc3)(C(=O)OC)[C@H]2C1=O | inconclusive: -8.28% | 
45 | O=C(Nc1ncc2c(n1)CC(c1ccco1)CC2=O)c1ccccc1 (stereo not drawn) |  | inconclusive: 6.51 µM [falling, single point]
46 | Cc1ccc(/C=N/NC(=S)NC2CCCCC2)o1 |  | inconclusive: 31.6 µM [falling, single point]
47 | CC1(C)Cc2c(C#N)c(NCCO)nc(-c3ccco3)c2CO1 | inactive: 20.5% | 
48 | Cc1[nH]n(-c2nc(-c3cccc([N+](=O)[O-])c3)cs2)c(=O)c1C | inconclusive: -3.96% | 
49 | Nc1nc(NC(=O)CCCC(=O)O)nn1-c1ccccc1 |  | inconclusive: 10.3 µM [falling, partial curve, poor fit]
50 | CCOc1ccccc1NC(=O)CSCC(=O)Nc1ccccc1 |  | inconclusive: 0.517 µM [rising, full curve, poor fit]
51 | CCCN(CCC)C1Sc2ccc(C(=O)OC)cc2NC1=O (stereo not drawn) |  | inconclusive: 13 µM [rising, partial curve, poor fit]
52 | COc1ccc(OC)c(N/C=C/C(=O)c2ccc(OC)c(OC)c2)c1 | inconclusive: -1.72% | 

Row | SMILES | activity change, negative = inhibition | Potency
53 | CCOC(=O)c1[nH]c(C)c(C(=O)N2CCc3ccccc32)c1C |  | inconclusive: 2.51 µM [falling, full curve, poor fit]
54 | N#Cc1c(/N=C/c2ccccc2)oc(-c2ccccc2)c1-c1ccccc1 | inconclusive: -15.6% | 
55 | O=C(O)CCN1C(=O)/C(=C/c2ccc(-c3nc4ccccc4s3)o2)SC1=S | inconclusive: -6.9% | 
56 | CCOC(=O)Cc1[nH]nc2c1C(c1ccsc1)C(C#N)=C(N)O2 (stereo not drawn) | inconclusive: -0.857% | 
57 | COc1ccc(-c2c(C)nn3c(NC4CCCC4)cc(C)nc23)cc1OC | inconclusive: -15.9% | 
58 | Cc1ccccc1CS(=O)(=O)c1nnc([C@H](Cc2ccccc2)NC(=O)OC(C)(C)C)o1 |  | inconclusive: 32.6 µM [rising, single point]
59 | Cc1ccc(NC(=O)CSc2cn[nH]n2)cc1 |  | inconclusive: 12.6 µM [falling, partial curve]
60 | Cc1ccc(Oc2nnc(-c3cccs3)c3ccccc23)cc1 | inactive: -0.941% | 
61 | Cc1sc(NC(=O)CSc2nnc3scc(-c4ccccc4)n23)c(C#N)c1C | inconclusive: 4.92% | 
62 | COc1ccc(-n2c(Cc3cccn3C)nnc2SCC(=O)Nc2cc(Cl)ccc2OC)cc1 | inconclusive: -3.02% | 
63 | Cc1ccc2c(c1)C(=O)N1[C@H]3c4cc(Cl)ccc4OC[C@@H]3[C@H](c3ccccc3)[C@]1(C)C(=O)N2 | inconclusive: 2.39% | 
64 | CCn1c(NC(=O)Nc2ccccc2OC)nc2ccccc21 |  | inconclusive: 15.8 µM [falling, partial curve, poor fit]
65 | CCOc1ccc(NC(=O)C2CCCN2C(=O)Oc2ccccc2)cc1 (stereo not drawn) | inactive: 3.27% | 
66 | O=C(O)c1ccc(N/N=C/C2=C(N3CCOCC3)C(=C\c3ccccc3)/CC2)cc1 |  | inconclusive: 8.91 µM [rising, partial curve]
67 | O=[N+]([O-])c1cc(S(=O)(=O)N2CCCC2)ccc1OCCOc1ccccc1 | inactive: -11.4% | 
68 | COc1ccc(N(CC(=O)N/N=C/c2ccc(-c3ccc([N+](=O)[O-])cc3)o2)S(=O)(=O)c2ccc(C)cc2)cc1Cl | inactive: 3.65% | 
69 | Cc1ccnc2ccc(-c3nc4ccccc4o3)cc12 | inconclusive: 1% | 
70 | Cc1cc(OCC(=O)NCc2ccccn2)c2c(C)c(C)c(=O)oc2c1 | inconclusive: 1.98% | 
71 | O=C1NC(=O)/C(=C/c2cccc3ccccc23)S1 | inconclusive: 6.48% | 
72 | CN1c2ccccc2C(O)=C(C(=S)Nc2ccccc2)S1(=O)=O |  | inconclusive: 23.1 µM [falling, single point]
73 | N#CCc1nn(-c2ccccc2)c2ncnc(N)c12 | inconclusive: -17.8% | 
74 | CC(=O)N1CCN(c2ccc(NC(=O)C(C)Oc3ccc(Cl)cc3Cl)cc2)CC1 (stereo not drawn) |  | inconclusive: 23.1 µM [falling, partial curve]
75 | CCc1ccc(OCCCC(=O)Nc2ccc(N3CCOCC3)cc2)cc1 |  | inconclusive: 0.126 µM [falling, full curve, poor fit]
76 | CSc1ccc(-c2nnn(Cc3ccc(C)cc3)n2)cc1 | inactive: 2.44% | 
77 | C=CCC[C@@H](Cc1ccc(F)cc1)C(=O)OC[C@@H](Cc1c[nH]c2ccccc12)NC(=O)[C@@H](CC=C)CC(=O)NCCO | inconclusive: -7% | 
78 | O=C1CN(c2ccccc2)C(=S)N1C(=O)c1ccccc1 |  | inconclusive: 25.1 µM [falling, single point]
